From patent US20100137221A1, “PEPTIDES THAT INTERACT WITH TOPOISOMERASE I AND METHODS THEREOF” (UNIVERSITY UTAH RESEARCH FOUNDATION, priority 2007, published 2010)
No constants are given. Whether binding was seen depends on the method and setting. Some results given as binding are weak or reduced against the parent protein; the word gives no strength.

Key:
human topoisomerase I [1] = target: T1, human topoisomerase I (human, UniProt P11387 1-765, limits assumed); assay: fluorescence polarization, human placental 91 kDa top1 titrated into 500 nM fluorescein-labeled T1BP1
T1 construct: also called top1; top 1
T1 sequence (looked up): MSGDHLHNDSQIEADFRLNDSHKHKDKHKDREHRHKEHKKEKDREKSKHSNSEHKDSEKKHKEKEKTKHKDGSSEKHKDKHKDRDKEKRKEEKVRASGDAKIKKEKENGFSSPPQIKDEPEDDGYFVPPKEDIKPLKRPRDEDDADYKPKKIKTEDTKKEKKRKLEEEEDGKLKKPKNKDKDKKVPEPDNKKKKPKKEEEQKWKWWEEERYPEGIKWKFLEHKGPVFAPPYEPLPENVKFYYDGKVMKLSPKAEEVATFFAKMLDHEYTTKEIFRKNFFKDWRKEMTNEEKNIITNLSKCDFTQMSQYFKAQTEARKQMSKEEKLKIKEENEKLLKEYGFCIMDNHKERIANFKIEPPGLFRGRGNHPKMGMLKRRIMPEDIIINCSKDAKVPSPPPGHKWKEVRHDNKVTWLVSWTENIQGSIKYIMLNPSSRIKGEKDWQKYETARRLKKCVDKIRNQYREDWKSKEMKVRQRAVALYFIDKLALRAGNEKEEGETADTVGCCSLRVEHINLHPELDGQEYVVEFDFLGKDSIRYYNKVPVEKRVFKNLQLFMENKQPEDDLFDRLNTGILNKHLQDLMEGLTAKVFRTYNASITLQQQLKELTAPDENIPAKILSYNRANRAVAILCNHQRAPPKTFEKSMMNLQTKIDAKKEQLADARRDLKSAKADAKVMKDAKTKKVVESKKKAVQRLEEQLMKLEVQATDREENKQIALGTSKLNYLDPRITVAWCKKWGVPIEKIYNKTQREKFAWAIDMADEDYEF

human topoisomerase I [2] = target: T1, human topoisomerase I; assay: phage display biopanning against top1-DNA-9AC, analytical titering against top1
Description: Phage display: Phage display was performed as described by Smith (Parmley 1989). Briefly, top1 was first biotinylated with a biotin derivative containing a spacer engineered to reduced steric interference (Pierce EZ-Link Biotin-PEO-Amine). The reaction was performed at a 5:1 molar ratio of biotin:top1 in 10 mM HEPES (pH 8.2) buffered 500 mM NaCl. The unreacted biotin was removed by gel filtration in a Biospin 30 column (BioRad) and biotinylated top1 was assayed for activity using a pull down method with streptavidin coated beads. The biotinylated top1 maintained catalytic activity. For phage display, 20 μg biotinylated top1 was reacted with a mixture of pBR322 and 9AC and 20 μg was applied to a 30 mm plastic petri dish coated with 10 μg of neutravidin (Pierce). The dish was then blocked with 3.0% bovine serum albumin, and 10 μl of a 10⁹/μl titer phage library in 100 μl TBS-0.05% Tween was added. Phage were allowed to associate with gentle rocking for 2 hours at 4° C., and then washed repeatedly over 2 hours at 4° C. with buffered saline containing 0.1% Tween. […]
Analytical titering: Ten μl of amplified phage clones (approximately 10¹² cfu) were incubated in 50 nM top1 for one hour at 4° C. on a rocker. […] Competent E. coli were added directly to the washed plates and the output assessed by counting a 10⁻⁶ dilution of the culture on tetracycline plates (FIG. 1). […]

With SSQVVGVPQLMQSSP (also called CPP2) [T1BP1] the binding (human topoisomerase I [1]) was “binds” and the binding (human topoisomerase I [2]) was “binds”.
